The values that follow come from PubChem BioAssay AID248 (DTP/NCI, 2004).

The assay relates to L1210 leukemia ip in BDF1 mice, survival T/C. Description: NCI In Vivo Anticancer Drug Screen. Data for tumor model L1210 Leukemia (intraperitoneal) in B6D2F1 (BDF1) mice. To be noted: T/C endpoint: mean survival time, higher T/C = longer survival.
The mark [1] stands for this setting: dose: 50.0 mg/kg/injection, schedule: Q01DX001 (ip), vehicle: Klucel (hydroxypropylcellulose) (HPC).
Where [2] appears, read: dose: 100.0 mg/kg/injection, schedule: Q01DX001 (ip), vehicle: Klucel (hydroxypropylcellulose) (HPC).
Setting [3] is: dose: 200.0 mg/kg/injection, schedule: Q01DX001 (ip), vehicle: Klucel (hydroxypropylcellulose) (HPC).
Where [4] appears, read: dose: 100.0 mg/kg/injection, schedule: Q01DX009 (ip), vehicle: Klucel (hydroxypropylcellulose) (HPC).
The mark [5] stands for this setting: dose: 400.0 mg/kg/injection, schedule: Q04DX003 (ip), vehicle: Klucel (hydroxypropylcellulose) (HPC).
Setting [6] is: dose: 200.0 mg/kg/injection, schedule: Q04DX002 (ip), vehicle: saline.
Where [7] appears, read: dose: 400.0 mg/kg/injection, schedule: Q04DX002 (ip), vehicle: saline.
Setting [8] is: dose: 50.0 mg/kg/injection, schedule: Q01DX009 (ip), vehicle: saline.

Molecules are shown by their SMILES. The list does not hold the whole screen: it gathers tests that were run many times, whatever their T/C, doses with no T/C, and many T/C values between a quarter and a half above the control. Other doses and runs of a compound stand elsewhere. T/C: endpoint of the treated group in % of that of the vehicle group. Some doses have a count of surviving animals in place of a T/C: the source holds a T/C of zero for them, seemingly a mark for toxic or unscored doses. Some doses without a T/C left all or most animals alive at the check, yet need not have been tolerated: survival well below the control is almost never listed, so the zero probably covers shortened survival too. Counts of survivors are from the toxicity check (mostly the fifth day) where no day follows; animals may have died later. Schedules are NCI's codes, taken here to give the interval after Q, in days (D) or hours (H), and the number of doses after X. Some schedules carry Z or #; the key to these is not given. Some entries were tested several times; their values stand side by side, smallest first. Where survival is the endpoint, the PubChem record calls one and a half times the control and up active, and a quarter to a half above the control has no call in these data; cut-offs in other NCI protocols can differ. Some T/C values are followed by the survivors on the day toxicity was checked, most often the fifth; without a count, all were alive then.

As to `CNC(=O)OCC1=CC(=O)C=CC1=O`, the survivor count (dose: 25.0 mg/kg/injection, schedule: Q04DX003 (ip), vehicle: Klucel (hydroxypropylcellulose) (HPC)) is 2 of 6; the survivor count under setting [1] is 0 of 6; the survivor count under setting [2] was 0 of 6; the survivor count under setting [3] was 0 of 6; the survivor count (dose: 400.0 mg/kg/injection, schedule: Q01DX001 (ip), vehicle: Klucel (hydroxypropylcellulose) (HPC)) is listed as 0 of 6.

Consider `COc1cc2c(c(OC)c1OC)-c1ccc(O)c(=O)cc1[C@@H](NC(C)=O)CC2`, for which, under “dose: 300.0 mg/kg/injection, schedule: Q01DX001 (ip), vehicle: other”, the survivor count is 0 of 6.

In the case of `COc1nc(-c2ccccc2)cn[n+]1C`, the T/C (dose: 50.0 mg/kg/injection, schedule: Q01DX001 (ip), vehicle: saline with Tween-80) is 127 % of control [5 of 6 alive]. The survivor count is 1 of 6 (dose: 100.0 mg/kg/injection, schedule: Q01DX001 (ip), vehicle: saline with Tween-80) and 0 of 6 (dose: 200.0 mg/kg/injection, schedule: Q01DX001 (ip), vehicle: saline with Tween-80).

With `CC(C(=O)O)N(CC(=O)O)CC(=O)O.[Co+2].[NH-]CC(=O)O` (stereo unspecified), the T/C (dose: 21.0 mg/kg/injection, schedule: Q01DX009 (ip), vehicle: water) is 146 % of control. Moreover, the survivor count reads like this: (dose: 100.0 mg/kg/injection, schedule: Q01DX009 (ip), vehicle: water) 5 of 6; (dose: 200.0 mg/kg/injection, schedule: Q01DX009 (ip), vehicle: water) 0 of 6; (dose: 400.0 mg/kg/injection, schedule: Q04DX003 (ip), vehicle: water) 0 of 6.

As for `C/C(=N/N=C(N)N)c1cccc(O)c1`, the survivor count is listed as 3 of 6 (dose: 60.0 mg/kg/injection, schedule: Q01DX Z (oral), vehicle: methylcellulose (MC)); 0 of 6 (dose: 120.0 mg/kg/injection, schedule: Q01DX Z (ip), vehicle: methylcellulose (MC)); 3 of 6 (dose: 120.0 mg/kg/injection, schedule: Q01DX Z (oral), vehicle: methylcellulose (MC)); 1 of 6 (dose: 240.0 mg/kg/injection, schedule: Q01DX Z (oral), vehicle: methylcellulose (MC)).

For the compound `ClCC[N+]12CC[N+](CCCl)(CC1)C2`, the T/C was 132 % of control (dose: 50.0 mg/kg/injection, schedule: Q01DX009 (ip), vehicle: Klucel (hydroxypropylcellulose) (HPC)); 129 % of control under setting [4]; 134 % of control (dose: 200.0 mg/kg/injection, schedule: Q01DX009 (ip), vehicle: Klucel (hydroxypropylcellulose) (HPC)); 143 % of control (dose: 300.0 mg/kg/injection, schedule: Q01DX001 (ip), vehicle: saline). For the same compound, the survivor count (dose: 400.0 mg/kg/injection, schedule: Q01DX009 (ip), vehicle: Klucel (hydroxypropylcellulose) (HPC)) is on record as 0 of 6.

Regarding `Cc1cc(S(=O)(=O)F)ccc1NC(=O)NCc1ccc([N+](=O)[O-])cc1Cl`, the survivor count under setting [5] was 0 of 6.

Consider `O=C1C=Cc2ccccc2C1=O`, for which the survivor count (dose: 6.25 mg/kg/injection, schedule: Q01DX001 (ip), vehicle: Klucel (hydroxypropylcellulose) (HPC)) was 1 of 3; the survivor count (dose: 12.5 mg/kg/injection, schedule: Q01DX001 (ip), vehicle: Klucel (hydroxypropylcellulose) (HPC)) is reported as 1 of 3; the survivor count (dose: 25.0 mg/kg/injection, schedule: Q01DX001 (ip), vehicle: Klucel (hydroxypropylcellulose) (HPC)) is listed as 0 of 3; the survivor count under setting [1] was 0 of 6; the survivor count under setting [2] is 0 of 6; the survivor count under setting [3] is 1 of 6.

Consider `Cc1nc(N(C)C)nc(C)c1C#[N+][O-]`, for which the survivor count (dose: 200.0 mg/kg/injection, schedule: Q01DX001 (ip), vehicle: carboxymethylcellulose (CMC)) was 0 of 4 and the survivor count (dose: 400.0 mg/kg/injection, schedule: Q01DX001 (ip), vehicle: carboxymethylcellulose (CMC)) is on record as 0 of 4.

Consider `O=C1C=C(O)c2cc(Br)ccc2C1=O.[Ag]`, for which the survivor count is recorded as 0 of 3 under setting [6] and 0 of 3 under setting [7].

On to `Oc1ccccc1/C=N/c1ccccn1`, for which, under setting [4], the survivor count is recorded as 2 of 6.

`CC1OC(=O)C(C2OC2C)=CC1O` (stereo unspecified): the survivor count by setting is: under setting [8], 4 of 6; (dose: 100.0 mg/kg/injection, schedule: Q01DX001 (ip), vehicle: saline) 1 of 6; (dose: 200.0 mg/kg/injection, schedule: Q01DX001 (ip), vehicle: saline) 0 of 6.

In the case of `CCCCC(=O)N1CCCCC1`, where the note is “dose: 400.0 mg/kg/injection, schedule: Q04DX002 (ip), vehicle: carboxymethylcellulose (CMC)”, the survivor count is 0 of 3.

As to `OC(CC1(O)C(F)(F)C(F)(F)C1(F)F)c1ccccc1` (stereo unspecified), the survivor count (dose: 200.0 mg/kg/injection, schedule: Q01DX009 (ip), vehicle: saline with Tween-80) was 6 of 6.

As to `Cc1n(Cc2ccccc2)cc[n+]1C`, the survivor count is, setting by setting: under setting [8], 1 of 3; (dose: 50.0 mg/kg/injection, schedule: Q04DX002 (ip), vehicle: saline) 1 of 3 and 3 of 6; (dose: 100.0 mg/kg/injection, schedule: Q04DX002 (ip), vehicle: saline) 0 of 3 and 1 of 6; under setting [6], 0 of 3 and 0 of 6; under setting [7], 0 of 3 and 0 of 6.

Regarding `Nc1nc(N)c(N=O)c(Nc2ccc(O)cc2)n1`, the survivor count (dose: 100.0 mg/kg/injection, schedule: Q01DX Z (ip), vehicle: methylcellulose (MC)) was 6 of 6.

For `O=NN(CCCl)C(=O)N[C@@H]1CCCC[C@H]1NC(=O)N(CCCl)N=O`, the T/C (dose: 3.75 mg/kg/injection, schedule: Q01DX001 (ip), vehicle: carboxymethylcellulose (CMC)) was 135 % of control; the T/C (dose: 7.5 mg/kg/injection, schedule: Q01DX001 (ip), vehicle: carboxymethylcellulose (CMC)) is 133 % of control; the T/C (dose: 10.0 mg/kg/injection, schedule: Q01DX001 (ip), vehicle: carboxymethylcellulose (CMC)) is 132 % of control; the T/C (dose: 15.0 mg/kg/injection, schedule: Q01DX001 (ip), vehicle: carboxymethylcellulose (CMC)) was 144 % of control. Moreover, the survivor count is, setting by setting: (dose: 400.0 mg/kg/injection, schedule: Q01DX001 (ip), vehicle: saline) 6 of 6; (dose: 500.0 mg/kg/injection, schedule: Q01DX001 (ip), vehicle: saline) 6 of 6; (dose: 600.0 mg/kg/injection, schedule: Q01DX001 (ip), vehicle: saline) 6 of 6; (dose: 800.0 mg/kg/injection, schedule: Q01DX001 (ip), vehicle: saline) 6 of 6; (dose: 1000.0 mg/kg/injection, schedule: Q01DX001 (ip), vehicle: saline) 6 of 6.

Take `CNCCC(CNC1=NCCN1)(c1cccc2ccccc12)C(C)C` (stereo unspecified): the survivor count is 0 of 6 (dose: 200.0 mg/kg/injection, schedule: Q04DX003 (ip), vehicle: Klucel (hydroxypropylcellulose) (HPC)) and 0 of 6 under setting [5].
